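A cell line overexpressing EP4 prostanoid receptors, stimulated with a low (about EC15) PGE2 dose; cAMP read by HTRF FRET after a short room-temperature incubation. Compounds were tested at 20 µM final. A low (about EC15) PGE2 dose was present. Percent cAMP induction as a fraction of the 1 µM PGE2 response, averaged over three replicates; a higher value means more cAMP.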

Values are in %. Common to all entries: measured here: EP4 receptor counter-screen. Part of the compounds only, not a random draw; the main read-out is not listed here.

SMILES	tested on / at	cAMP induction (%)
CC1CCCN(C(=O)CSc2cnc3ccccc3n2)C1 (stereo not given)	percent of 1 uM PGE2 response; plus low (about EC15) PGE2 agonist	62.45
COC(=O)c1cc2occc2n1Cc1cccc(C)c1	percent of 1 uM PGE2 response; plus low (about EC15) PGE2 agonist	6.153
Cc1ccc(C2CC2c2n[nH]c(=S)n2-c2ccc(C)cc2)cc1 (stereo not given)	percent of 1 uM PGE2 response; plus low (about EC15) PGE2 agonist	-13.34
O=c1c2oc3ccccc3c2[nH]c(=S)n1-c1ccccc1	percent of 1 uM PGE2 response; plus low (about EC15) PGE2 agonist	63.02
COc1cc(C2Oc3cc(C4Oc5cc(O)cc(O)c5C(=O)C4O)ccc3OC2CO)ccc1O (stereo not given)	percent of 1 uM PGE2 response; plus low (about EC15) PGE2 agonist	5.977
Cc1ccc(-n2c(SCC(N)=O)nc3c(c2=O)C2(CCCC2)Cc2ccccc2-3)cc1	percent of 1 uM PGE2 response; plus low (about EC15) PGE2 agonist	50.6
CCOC(=O)c1c(C)[nH]c(C=O)c1Cc1cccc(Cl)c1	percent of 1 uM PGE2 response; plus low (about EC15) PGE2 agonist	1.59
CCn1c2ccccc2c2cc(/C=N/n3c(C)nnc3C)ccc21	percent of 1 uM PGE2 response; plus low (about EC15) PGE2 agonist	-11.61
CN(C)Cc1ccccc1Sc1cccc2ccccc12	percent of 1 uM PGE2 response; plus low (about EC15) PGE2 agonist	-6.593
COc1ccc(Cc2n[nH]c(=S)n2Cc2ccccc2)cc1Cl	percent of 1 uM PGE2 response; plus low (about EC15) PGE2 agonist	7.443
CCOC(=O)C1=C(N)OC2=C(C(=O)CC(C)(C)C2)C1c1ccc(CC)s1 (stereo not given)	percent of 1 uM PGE2 response; plus low (about EC15) PGE2 agonist	0.88
OC(COc1ccccc1)Cn1c2ccccc2c2ccccc21 (stereo not given)	percent of 1 uM PGE2 response; plus low (about EC15) PGE2 agonist	-3.307
c1ccc(-c2noc(-c3cccc4ccccc34)n2)cc1	percent of 1 uM PGE2 response; plus low (about EC15) PGE2 agonist	12.15
CC(Sc1nnc(-c2cccs2)n1Cc1ccccc1)C(=O)NCc1ccc2c(c1)OCO2 (stereo not given)	percent of 1 uM PGE2 response; plus low (about EC15) PGE2 agonist	1.503
Cn1c(=O)c(NCCc2ccccc2)c2c3c(cccc31)C(=O)c1ccccc1-2	percent of 1 uM PGE2 response; plus low (about EC15) PGE2 agonist	-4.497
Nc1cc(Cl)ccc1Oc1ccc(Cl)cc1	percent of 1 uM PGE2 response; plus low (about EC15) PGE2 agonist	-2.547
COc1ccc(-c2c3c([nH]c(=S)c2C#N)CCC3)cc1	percent of 1 uM PGE2 response; plus low (about EC15) PGE2 agonist	65.43

2 of the entries, repeated:

| SMILES | tested on / at | cAMP induction (%) |
|---|---|---|
| `CCOC(=O)C1=C(N)OC2=C(C(=O)CC(C)(C)C2)C1c1ccc(CC)s1` (stereo not given) | percent of 1 uM PGE2 response; plus low (about EC15) PGE2 agonist | 0.88 |
| `COC(=O)c1cc2occc2n1Cc1cccc(C)c1` | percent of 1 uM PGE2 response; plus low (about EC15) PGE2 agonist | 6.153 |

From PubChem BioAssay record AID1080 (Emory University Molecular Libraries Screening Center, 2008).